± gives the standard deviation of the averaged measurements. The list shows a part of the results.

The values that follow come from the supplement of paper PMC6414424.

This assay concerns APPdp1-6 iPSC-derived neurons. The experiment in a line: pThr231Tau/total Tau ratio Z-score vs DMSO vehicle wells; higher = more pThr231Tau relative to total Tau. The note with it: 5 µM; treatment time 5 days.
As to `C[C@@H]1O[C@@H](OC[C@H]2O[C@@H](Oc3c(-c4ccc(OCCO)c(OCCO)c4)oc4cc(OCCO)cc(O)c4c3=O)[C@H](O)[C@@H](O)[C@@H]2O)[C@H](O)[C@H](O)[C@H]1O`, the “pThr231Tau/total Tau ratio Z-score” value worked out at 0.461 ± 0.64.
`CCN(CC)C(=O)/C(C#N)=C/c1cc(O)c(O)c([N+](=O)[O-])c1` [Prestw-1403]: the “pThr231Tau/total Tau ratio Z-score” value is 0.595 ± 0.17.
As for `CC[C@H]1OC(=O)C[C@@H](O)[C@H](C)[C@@H](O[C@@H]2O[C@H](C)[C@@H](O)[C@H](N(C)C)[C@H]2O)[C@@H](CCN2C[C@H](C)C[C@H](C)C2)C[C@@H](C)C(=O)/C=C/C(C)=C/[C@@H]1CO[C@@H]1O[C@H](C)[C@@H](O)[C@@H](OC)[C@H]1OC` [TILMICOSIN, antibacterial], the figure is -0.163 ± 0.39; as for `CNCCCC12CCC(c3ccccc31)c1ccccc12` [Prestw-346], -0.916 ± 0.95.
As for `CCCCCC(=O)O[C@]1(C(C)=O)CC[C@H]2[C@@H]3CCC4=CC(=O)CC[C@]4(C)[C@H]3CC[C@@]21C` [HYDROXYPROGESTERONE CAPROATE    Therap cat:   Progestogen], the figure is 1.56 ± 1.4; as for `C[C@@H]1C[C@H]2[C@@H]3C[C@H](F)C4=CC(=O)C=C[C@]4(C)[C@@]3(Cl)[C@@H](O)C[C@]2(C)[C@H]1C(=O)COC(=O)C(C)(C)C` [Prestw-1119], 0.899 ± 0.46.
As for `CCN(CC)CCNC(=O)c1ccc(NC(C)=O)cc1`, the figure is 0.942 ± 0.63.
In the case of `CNC[C@H](O)c1cccc(O)c1` [Phenylephrine], the “pThr231Tau/total Tau ratio Z-score” value came out at 1.74 ± 2.8.
As for `CNC(=C[N+](=O)[O-])NCCSCc1ccc(CN(C)C)o1` [Prestw-201], the figure is 0.0261 ± 0.82; as for `COC(=O)[C@H]1[C@H]2C[C@@H]3c4[nH]c5cc(OC)ccc5c4CCN3C[C@H]2C[C@@H](OC(=O)c2cc(OC)c(OC)c(OC)c2)[C@@H]1OC` [Prestw-875], -0.788 ± 0.26.
As for `N[C@H](Cc1ccccc1)C(=O)O` [D-PHENYLALANINE    Therap cat: antidepressant], the figure is 0.509 ± 0.085; as for `CCOC(=O)Nc1ccc2c(c1)N(C(=O)CCN1CCOCC1)c1ccccc1S2` [Prestw-1051], -0.987 ± 0.75; as for `CN=C(NC#N)NCCSCc1nc[nH]c1C` [Prestw-26], 3.62 ± 2.9.
For `C#C[C@]1(O)CC[C@H]2[C@@H]3CCc4cc(OC)ccc4[C@H]3CC[C@@]21C` [Prestw-846], the “pThr231Tau/total Tau ratio Z-score” value was -0.417 ± 1.4.
As for `CC(C)NCC(O)c1ccc(NS(C)(=O)=O)cc1` (stereo unspecified) [Prestw-966], the figure is -0.076 ± 0.26; as for `CC(=O)N1CCN(c2ccc(OCC3COC(Cn4ccnc4)(c4ccc(Cl)cc4Cl)O3)cc2)CC1` (stereo unspecified) [Prestw-389], -0.445 ± 0.67; as for `CCN(CC)CCCC(C)Nc1c2ccc(Cl)cc2nc2ccc(OC)cc12` (stereo unspecified) [Prestw-318], -0.519 ± 0.24.
As for `O=C(O)P(=O)(O)O` [FOSCARNET    Therap cat: antiviral], the “pThr231Tau/total Tau ratio Z-score” value worked out at 2.2 ± 1.9.
With `CCCCCCCCCCCCCCCC[N+](C)(C)CCN(Cc1ccc(OC)cc1)c1ncccn1` [Prestw-925], the “pThr231Tau/total Tau ratio Z-score” value was -2.65 ± 0.056.
As for `NS(=O)(=O)c1ccc(C(=O)O)cc1`, the figure is 1.1 ± 0.64.
As for `CO[C@H]1C[C@@H]2CC[C@@H](C)[C@@](O)(O2)C(=O)C(=O)N2CCCC[C@H]2C(=O)O[C@H]([C@H](C)C[C@@H]2CC[C@@H](O)[C@H](OC)C2)CC(=O)[C@H](C)/C=C(\C)[C@@H](O)[C@@H](OC)C(=O)[C@H](C)C[C@H](C)/C=C/C=C/C=C/1C`, the figure is -0.00798 ± 1.8; as for `CO[C@@]1(NC(=O)C(C(=O)O)c2ccc(O)cc2)C(=O)N2C(C(=O)O)=C(CSc3nnnn3C)CO[C@@H]21` (stereo partly specified) [Prestw-819], -1.01 ± 1.9; as for `C#C[C@]1(O)CC[C@H]2[C@@H]3CCC4=CC(=O)CC[C@@H]4[C@H]3CC[C@@]21C` [Prestw-253], 0.309 ± 0.13.
As for `C#C[C@]1(OC(C)=O)CC[C@H]2[C@@H]3CCC4=C[C@@H](OC(C)=O)CC[C@@H]4[C@H]3CC[C@@]21C` [Prestw-908], the figure is 0.0101 ± 0.87; as for `C#C[C@]1(OC(C)=O)CC[C@H]2[C@@H]3CCC4=C[C@@H](OC(C)=O)CC[C@@H]4[C@H]3CC[C@@]21C` [ETHYNODIOL DIACETATE, progestin], 1.35 ± 1.4; as for `Nc1ccc(S(=O)(=O)Nc2ncccn2)cc1` [Prestw-23], 1.1 ± 1.5.
On to `Nc1ccc(O)c(C(=O)O)c1` [Prestw-1069], for which the “pThr231Tau/total Tau ratio Z-score” value was -0.0608 ± 0.46.
As for `CCN(CC)CCOC(=O)C1(c2ccc([N+](=O)[O-])cc2)CCCC1` [Prestw-981], the figure is -0.139 ± 0.36; as for `Clc1ccccc1CN1CCc2sccc2C1` [Prestw-47], -0.492 ± 0.57; as for `CCC(=O)O[C@H](CC(=O)O)C[N+](C)(C)C` [AMINOPENTAMIDE, antispasmodic, antiemetic], -0.969 ± 0.17.
As for `CO[C@@]1(NC(=O)C2SC(=C(C(N)=O)C(=O)O)S2)C(=O)N2C(C(=O)O)=C(CSc3nnnn3C)CS[C@@H]21` (stereo partly specified) [Prestw-473], the figure is -0.253 ± 0.92; as for `CN(C)CCCN1c2ccccc2CCc2ccc(Cl)cc21` [Prestw-269], -2.4.
Take `Cc1cc(NC(=O)C2=C(O)c3ccccc3S(=O)(=O)N2C)no1` [Prestw-44]: the “pThr231Tau/total Tau ratio Z-score” value is -1.29 ± 0.62.
For `COC(=O)C1=C(C)NC(C)=C(C(=O)OC)C1c1ccccc1[N+](=O)[O-]` [Prestw-63], the “pThr231Tau/total Tau ratio Z-score” value was -3.68 ± 0.4.
As to `CN1CCN(CCCN2c3ccccc3Sc3ccc(S(=O)(=O)N(C)C)cc32)CC1` [Prestw-149], the “pThr231Tau/total Tau ratio Z-score” value was -0.658 ± 0.76.
For `C[C@@H](c1ncncc1F)[C@](O)(Cn1cncn1)c1ccc(F)cc1F` [Prestw-1500], the “pThr231Tau/total Tau ratio Z-score” value was -0.103 ± 0.69.
